According to patent US20160340429A1 (KADMON, published 2016):
No constants are given. Whether binding was seen depends on the method and setting. Some binding calls cover weakened binding; strength is not graded here.

Amino acid sequences for entries named in this document (tags omitted). A change or cut given only in a name is not applied to a line headed by its entry.
UniProt Q9NZQ7: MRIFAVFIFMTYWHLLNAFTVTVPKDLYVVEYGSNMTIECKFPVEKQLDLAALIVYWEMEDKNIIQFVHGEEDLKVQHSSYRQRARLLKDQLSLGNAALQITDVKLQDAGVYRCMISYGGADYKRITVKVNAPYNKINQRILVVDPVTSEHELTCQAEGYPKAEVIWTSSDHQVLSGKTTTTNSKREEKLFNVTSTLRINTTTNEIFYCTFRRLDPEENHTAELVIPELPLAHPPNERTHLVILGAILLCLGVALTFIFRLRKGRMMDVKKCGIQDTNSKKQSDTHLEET

Assays:
[1] = target: human PD-L1 on cells (PDLI-293 / HEK-293 cells expressing PD-L1, MDA-MB-231 cells, activated CD4 cells, monocyte-derived dendritic cells) (human) (UniProt Q9NZQ7); experiment: binding to HEK-293 cells expressing PD-L1
[2] = target: recombinant human PDL1-Fc (PDL1 ECD and human Fc fusion protein, Q9NZQ7) (human) (UniProt Q9NZQ7); experiment: solid-phase ELISA

Row | binding [1] | binding [2] | Binder
1 | binds | binds | tccR3κA11 (antibody, V domains shown) VH: EVQLLESGGGLVQPGGSLRLSCAASGFTFSWYLMKWVRQAPGKGLEWVSYIGSSGGFTAYADSVKGRFTISRDNSKNTLYLQMNSLRAEDTAMYYCAREDDFGAMDVWGQGTTVTVSS VL: DIQMTQSPSSLSASVGDRVTITCRASQTVSKYFNWFQQKPGEAPKLLIYATSTLQSGVPSRFSGSGYGTEFTLTISSLQPEDFATYYCQQSYTTPWTFGQGTKVEIK
2 | binds | binds | tccR3κB7 (antibody, V domains shown) VH: EVQLLESGGGLVQPGGSLRLSCAASGFTFSSYQMGWVRQAPGKGLEWVSWIVPSGGFTHYADSVKGRFTISRDNSKNTLYLQMNSLRAEDTAVYYCARDAGYRSGYYYYYGMDVWGQGTTVTVSS VL: DIQMTQSPSSLSASVGDRVTITCRASQSIASYLNWYQQKPGKAPKLLIYGASSLQSGVPSRFSGSGSGTDFTLTIRSLQPEDIATYYCQQSYGISYTFGQGTKLEIK
3 | binds | binds | sR3λD7 (antibody, V domains shown) VH: EVQLLESGGGLVQPGGSLRLSCAASGFTFSKYRMAWVRQAPGKGLEWVSYIYPSGGFTFYADSVKGRFTISRDNSKNTLYLQMNSLRAEDTAVYYCAKDIGQWLFVFDYWGQGTLVTVSS VL: QSELTQPASVSGSPGQSITISCTGTSSDVGGYNYVSWYQQHPGKAPKLMIYDVSNRPSGVSNRFSGSKSGNTASLTISGLQAEDEADYYCSSYTNTITVVFGGGTKLTVLG
4 | binds | binds | tccR3λF8 (antibody, V domains shown) VH: EVQLLESGGGLVQPGGSLRLSCAASGFTFSIYSMNWVRQAPGKGLEWVSVIYPSGGFTHYADSVKGRFTISRDNSKNTLYLQMNSLRAEDTAVYYCARGRKTTVTDFDYWGQGTLVTVSS VL: QSALTQPASVSGSPGQSITISCTGTSSDVGGYNYVSWYQQHPGKAPKVMIYEVSHRPSGVSNRFSGSKSGNTASLTISGLQAEDEADYYCSSYTSGSTRVFGGGTKVTVLG
5 | binds | binds | tccR3λH4 (antibody, V domains shown) VH: EVQLLESGGGLVQPGGSLRLSCAASGFTFSAYRMVWVRQAPGKGLEWVSRIYPSGGFTFYADSVKGRFTISRDNSKNTLYLQMNSLRAEDTAVYYCARALGPLSPLDSWGQGTLVTVSS VL: QSELTQPASVSGSPGQSITISCTGTSSDVGGYNYVSWYQQHPGKAPKLMIYEVSNRPSGVPDRFSGSKSGNTASLTISGLQAEDEGDYYCSSYRSGNTLVFGGGTKVTVLG
6 | binds | binds | tccR3κA4 (antibody, V domains shown) VH: EVQLLESGGGLVQPGGSLRLSCAASGFTFSPYDMGWVRQAPGKGLEWVSSIYSSGGWTKYADSVKGRFTISRDNSKNTLYLQMNSLRAEDTAVYYCARDNWNDGAFDVWGQGTMVTVSS VL: DIQMTQSPSTLSASVGDRVTITCRASQSISSWLAWYQQKPGKAPKLLIFAASRLQTGVPSRFSGSGSGTDFTLTISSLQPEDSATYYCQQAKTFPLTFGGGTRVEIK
7 | binds | binds | tccR3κF8 (antibody, V domains shown) VH: EVQLLESGGGLVQPGGSLRLSCAASGFTFSFYDMSWVRQAPGKGLEWVSSIVPSGGWTFYADSVKGRFTISRDNSKNTLYLQMNSLRAEDTAVYYCARDSWNDGASDIWGQGTMVTVSS VL: DIQMTQSPSSVSASVGDRVTITCRASQGISSWLAWYQQKPGKAPKLLIYAASSLQSGVPSRFSGSGSGTDFTLTINSLQPEDFATYYCQQANSFPFTFGPGTKVDFK
8 | binds | binds | tctR3κA8 (antibody, V domains shown) VH: EVQLLESGGGLVQPGGSLRLSCAASGFTFSWYIMAWVRQAPGKGLEWVSYISSSGGFTAYADSVKGRFTISRDNSKNTLYLQMNSLRAEDTAVYYCARIGGTDVFDIWGQGTLVTVSS VL: DIQMTQSPSTLSASVGDRVTITCRASQSISSWLAWYQQKPGKAPKLLIYKASSLESGVPSRFSGSGSGTDFTLTITSLLPEDFATYYCQQSYSSPWTFGQGTKVEVK
9 | binds | binds | tccR3κD9 (antibody, V domains shown) VH: EVQLLESGGGLVQPGGSLRLSCAASGFTFSHYPMSWVRQAPGKGLEWVSRIWSSGGNTYYADSVKGRFTISRDNSKNTLYLQMNSLRAEDTAVYYCARGGYFDWLYPHDYWGQGTLVTVSS VL: DIQMTQSPSSVSASVGDRVTITCRASQGISSWLSWYQQKPGAAPKLLIYAASSLQSGVPARFSGSGSGREFTLTISNLQPEDFATYYCQQGNSFPPTFGQGTKVDIK
